Data source: PubChem BioAssay AID1508597 (Cure First, 2020)

Screen: 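Survival screen with siRNA in ovarian cancer cells derived from patients, with or without rucaparib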 (primary screen)
Cells: human ovarian carcinoma lines grown from tumours: OCI-P5x (papillary serous) and OCI-C5x (clear cell)
Reagents: siRNA pool against human genes, 1.25 pmol siRNA per well
Timing: 72 h or 96 h, depending on the cell culture
Conditions: rucaparib 20 µM (about IC30) or vehicle, present until read-out
Measurement: 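Luminescent ATP-based viability assay read 72 or 96 h after transfection, depending on culture, given as normalised percent viability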
Reading the numbers: viability, normalised: higher = more viable cells remaining
Hit rule: 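a well counts as a hit if its normalised viability is under 80 percent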
Meaning of the calls: active = viability under 80%; inactive = viability 80% or more
In all, the deposit lists about 2,100 reagents; shown is a random part of them. 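Calls flag viability under 80% in either arm, not effects specific to rucaparib; the reference for percent is not stated.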 Unmarked entries are inactive. A reagent listed more than once was tested more than once; the source does not tell the runs apart. No sequences are given here. Not given: the 100% reference.

| gene symbol | rucaparib or vehicle | cell line | technical replicate | viability, normalised (%) |
| --- | --- | --- | --- | --- |
| ITGA4 | Rucaparib | OCI-C5x (clear cell) | 1 | 36.6 (active) |
| ITGA4 | Rucaparib | OCI-C5x (clear cell) | 2 | 34.8 (active) |
| ITGA4 | Rucaparib | OCI-C5x (clear cell) | 3 | 36.2 (active) |
| ITGA4 | Rucaparib | OCI-P5x (serous) | 1 | 38 (active) |
| ITGA4 | Rucaparib | OCI-P5x (serous) | 2 | 37.6 (active) |
| ITGA4 | Rucaparib | OCI-P5x (serous) | 3 | 42.7 (active) |
| ITGA4 | Vehicle | OCI-C5x (clear cell) | 1 | 38.9 (active) |
| ITGA4 | Vehicle | OCI-C5x (clear cell) | 2 | 42 (active) |
| ITGA4 | Vehicle | OCI-C5x (clear cell) | 3 | 50.9 (active) |
| ITGA4 | Vehicle | OCI-P5x (serous) | 1 | 37.6 (active) |
| ITGA4 | Vehicle | OCI-P5x (serous) | 2 | 50.5 (active) |
| ITGA4 | Vehicle | OCI-P5x (serous) | 3 | 96.6 |
| PRKAR1B | Rucaparib | OCI-C5x (clear cell) | 1 | 46.3 (active) |
| PRKAR1B | Rucaparib | OCI-C5x (clear cell) | 2 | 53 (active) |
| PRKAR1B | Rucaparib | OCI-C5x (clear cell) | 3 | 68.7 (active) |
| PRKAR1B | Rucaparib | OCI-P5x (serous) | 1 | 107 |
| PRKAR1B | Rucaparib | OCI-P5x (serous) | 2 | 129 |
| PRKAR1B | Rucaparib | OCI-P5x (serous) | 3 | 129 |
| PRKAR1B | Vehicle | OCI-C5x (clear cell) | 1 | 47.4 (active) |
| PRKAR1B | Vehicle | OCI-C5x (clear cell) | 2 | 47.5 (active) |
| PRKAR1B | Vehicle | OCI-C5x (clear cell) | 3 | 47.9 (active) |
| PRKAR1B | Vehicle | OCI-P5x (serous) | 1 | 96.4 |
| PRKAR1B | Vehicle | OCI-P5x (serous) | 2 | 115 |
| PRKAR1B | Vehicle | OCI-P5x (serous) | 3 | 112 |
| DNAJC2 | Rucaparib | OCI-C5x (clear cell) | 1 | 41.1 (active) |
| DNAJC2 | Rucaparib | OCI-C5x (clear cell) | 2 | 34.5 (active) |
| DNAJC2 | Rucaparib | OCI-C5x (clear cell) | 3 | 41.2 (active) |
| DNAJC2 | Rucaparib | OCI-P5x (serous) | 1 | 58 (active) |
| DNAJC2 | Rucaparib | OCI-P5x (serous) | 2 | 53.5 (active) |
| DNAJC2 | Rucaparib | OCI-P5x (serous) | 3 | 53.6 (active) |
| DNAJC2 | Vehicle | OCI-C5x (clear cell) | 1 | 48.9 (active) |
| DNAJC2 | Vehicle | OCI-C5x (clear cell) | 2 | 44 (active) |
| DNAJC2 | Vehicle | OCI-C5x (clear cell) | 3 | 42.5 (active) |
| DNAJC2 | Vehicle | OCI-P5x (serous) | 1 | 59.2 (active) |
| DNAJC2 | Vehicle | OCI-P5x (serous) | 2 | 58.8 (active) |
| DNAJC2 | Vehicle | OCI-P5x (serous) | 3 | 60.9 (active) |
| RPS6KA2 | Rucaparib | OCI-C5x (clear cell) | 1 | 50 (active) |
| RPS6KA2 | Rucaparib | OCI-C5x (clear cell) | 2 | 55.3 (active) |
| RPS6KA2 | Rucaparib | OCI-C5x (clear cell) | 3 | 48.3 (active) |
| RPS6KA2 | Rucaparib | OCI-P5x (serous) | 1 | 88.1 |
| RPS6KA2 | Rucaparib | OCI-P5x (serous) | 2 | 66.2 (active) |
| RPS6KA2 | Rucaparib | OCI-P5x (serous) | 3 | 110 |
| RPS6KA2 | Vehicle | OCI-C5x (clear cell) | 1 | 66.2 (active) |
| RPS6KA2 | Vehicle | OCI-C5x (clear cell) | 2 | 53.8 (active) |
| RPS6KA2 | Vehicle | OCI-C5x (clear cell) | 3 | 58.5 (active) |
| RPS6KA2 | Vehicle | OCI-P5x (serous) | 1 | 98.1 |
| RPS6KA2 | Vehicle | OCI-P5x (serous) | 2 | 75.6 (active) |
| RPS6KA2 | Vehicle | OCI-P5x (serous) | 3 | 90.4 |
| DNAJC5 | Rucaparib | OCI-C5x (clear cell) | 1 | 81.9 |
| DNAJC5 | Rucaparib | OCI-C5x (clear cell) | 2 | 68.6 (active) |
| DNAJC5 | Rucaparib | OCI-C5x (clear cell) | 3 | 81.5 |
| DNAJC5 | Rucaparib | OCI-P5x (serous) | 1 | 117 |
| DNAJC5 | Rucaparib | OCI-P5x (serous) | 2 | 107 |
| DNAJC5 | Rucaparib | OCI-P5x (serous) | 3 | 98.2 |
| DNAJC5 | Vehicle | OCI-C5x (clear cell) | 1 | 118 |
| DNAJC5 | Vehicle | OCI-C5x (clear cell) | 2 | 70.7 (active) |
| DNAJC5 | Vehicle | OCI-C5x (clear cell) | 3 | 93.4 |
| DNAJC5 | Vehicle | OCI-P5x (serous) | 1 | 93.1 |
| DNAJC5 | Vehicle | OCI-P5x (serous) | 2 | 88.3 |
| DNAJC5 | Vehicle | OCI-P5x (serous) | 3 | 96.1 |
| CDK11A | Rucaparib | OCI-C5x (clear cell) | 1 | 52.1 (active) |
| CDK11A | Rucaparib | OCI-C5x (clear cell) | 1 | 77.7 (active) |
| CDK11A | Rucaparib | OCI-C5x (clear cell) | 2 | 59.6 (active) |
| CDK11A | Rucaparib | OCI-C5x (clear cell) | 2 | 51.1 (active) |
| CDK11A | Rucaparib | OCI-C5x (clear cell) | 3 | 82.1 |
| CDK11A | Rucaparib | OCI-C5x (clear cell) | 3 | 55.8 (active) |
| CDK11A | Rucaparib | OCI-P5x (serous) | 1 | 97.3 |
| CDK11A | Rucaparib | OCI-P5x (serous) | 1 | 81 |
| CDK11A | Rucaparib | OCI-P5x (serous) | 2 | 95.5 |
| CDK11A | Rucaparib | OCI-P5x (serous) | 2 | 86.8 |
| CDK11A | Rucaparib | OCI-P5x (serous) | 3 | 88.5 |
| CDK11A | Rucaparib | OCI-P5x (serous) | 3 | 68.7 (active) |
| CDK11A | Vehicle | OCI-C5x (clear cell) | 1 | 63.2 (active) |
| CDK11A | Vehicle | OCI-C5x (clear cell) | 1 | 47.1 (active) |
| CDK11A | Vehicle | OCI-C5x (clear cell) | 2 | 73.4 (active) |
| CDK11A | Vehicle | OCI-C5x (clear cell) | 2 | 38.4 (active) |
| CDK11A | Vehicle | OCI-C5x (clear cell) | 3 | 38.5 (active) |
| CDK11A | Vehicle | OCI-C5x (clear cell) | 3 | 32 (active) |
| CDK11A | Vehicle | OCI-P5x (serous) | 1 | 105 |
| CDK11A | Vehicle | OCI-P5x (serous) | 1 | 73.1 (active) |
| CDK11A | Vehicle | OCI-P5x (serous) | 2 | 87.9 |
| CDK11A | Vehicle | OCI-P5x (serous) | 2 | 73.3 (active) |
| CDK11A | Vehicle | OCI-P5x (serous) | 3 | 69.4 (active) |
| CDK11A | Vehicle | OCI-P5x (serous) | 3 | 93.4 |

14 consecutive records from above, for reference:
| gene symbol | rucaparib or vehicle | cell line | technical replicate | viability, normalised (%) |
| --- | --- | --- | --- | --- |
| DNAJC2 | Vehicle | OCI-P5x (serous) | 3 | 60.9 (active) |
| RPS6KA2 | Rucaparib | OCI-C5x (clear cell) | 1 | 50 (active) |
| RPS6KA2 | Rucaparib | OCI-C5x (clear cell) | 2 | 55.3 (active) |
| RPS6KA2 | Rucaparib | OCI-C5x (clear cell) | 3 | 48.3 (active) |
| RPS6KA2 | Rucaparib | OCI-P5x (serous) | 1 | 88.1 |
| RPS6KA2 | Rucaparib | OCI-P5x (serous) | 2 | 66.2 (active) |
| RPS6KA2 | Rucaparib | OCI-P5x (serous) | 3 | 110 |
| RPS6KA2 | Vehicle | OCI-C5x (clear cell) | 1 | 66.2 (active) |
| RPS6KA2 | Vehicle | OCI-C5x (clear cell) | 2 | 53.8 (active) |
| RPS6KA2 | Vehicle | OCI-C5x (clear cell) | 3 | 58.5 (active) |
| RPS6KA2 | Vehicle | OCI-P5x (serous) | 1 | 98.1 |
| RPS6KA2 | Vehicle | OCI-P5x (serous) | 2 | 75.6 (active) |
| RPS6KA2 | Vehicle | OCI-P5x (serous) | 3 | 90.4 |
| DNAJC5 | Rucaparib | OCI-C5x (clear cell) | 1 | 81.9 |
